PubChem BioAssay AID1745850 (National Center for Advancing Translational Sciences (NCATS), 2022)
Hit rate of the full screen: of about 2,100 compounds, about 260 (12%) were called active. The shares of active, inactive and inconclusive entries below differ from those in the screen. Calls come from the whole dose curve; as a rule, active = well fitted cell-killing curve with a large enough effect; inconclusive = small, poorly fitted or top-dose-only effect, or effect the other way; inactive = flat fitted curve, though single readings scatter. A potency beside an inconclusive call is a rough fit, not a confirmed value.
Potency is the fitted concentration of half-maximal effect.

Assay: Viability Counterscreen for Confirmatory qHTS for Inhibitors of ATXN expression; note: nearly all actives have a fitted effect of over 50% in size
Details: HEK-293 ATXN2-luc cells viability, CellTiter-Fluor, 24 h; activity change, negative = cytotoxicity: at 57.5 µM (top of the series)
Text: PI: Daniel Scoles Ph.D. University of Utah School of Medicine, Salt Lake City, Utah MLPCN Grant: NS073009 Spinocerebellar ataxia type 2 (SCA2) is a multisystem neurodegenerative disease caused by a dominantly acting mutation leading to expansion of a polyQ domain in the ataxin-2 protein (ATXN2). SCA2 patients develop progressive ataxia and later lose function in other neuronal systems. Prominent parkinsonian signs develop in some patients. Like many neurodegenerative disorders, no symptomatic or disease-modifying treatments are known. The primary objective of the proposed research is to identify compounds inhibiting ATXN2 expression and to test them for efficacy in SCA2 mouse models. We have developed a cell-based assay paired with an in vivo mouse model using identical luciferase expression constructs. This approach takes advantage of an ATXN2-luciferase transgene, with the luciferase gene flanked by the upstream and downstream portions of the ATXN2 gene. Here we describe a 5-7 dose quantitative high thoroughput screen (qHTS) for compounds lowering ATXN2 expression. We screened the NIH Molecular Libraries Small Molecule Repository (MLSMR) and NCGC's mechanistically annotated (MIPE) and drug repurposing (NPC) collections of compounds for lowering expression of an ATXN2-luciferase reporter in HEK-293 cells. The assay is a multiplexed cell viability assay to ensure target reduction in the absence of cytotoxicity. Secondary qHTS assays included a CMV-luciferase reporter expressed in HEK-293 cells as well as a biochemical assay using recombinant luciferase to detect inhibitors of the reporter enzyme. Compounds that inhibit ATXN2 expression but is not cytotoxic were selected for confirmatory and secondary screens.
PROTOCOL TABLE (as described by Inglese J, Shamu CE and Guy RK. 2007) SEQUENCE No. (e.g., 1, 2, 3, etc.); […] (e.g., Cells, Incubation, Reagent, etc.); VALUE; DESCRIPTION. 1; Cells; 4 uL; white, solid bottom, 1536-well Greiner assay plate. 2; Incubation; 2 hr; 37 degree C in 5% humidified CO2. 3; Compounds; 23 nL; Kalypsis pintool (Wako USA) equipped with a 1536-well pin head. 4; Incubation; 24 hr; 37 degree C in 5% humidified CO2. 5; Reagent; 1 uL; Gly-Phe-7-Amino-4-trifluoromethylcoumarin. 6; Incubation; 30 min; 37 degree C in 5% humidified CO2. 7; Detection; Fluorescence; ViewLux plate reader (PerkinElmer). 8; Reagent; 3 uL; SteadyGlo luciferase solution (Promega). 9; Incubation; 5 min; room temperature. 10; Detection; Luminescence; ViewLux plate reader (PerkinElmer). NOTES (numbers refer to Sequence numbers above) 1. S2 cells expressing ATXN2-luciferase reporter were suspended in phenol-red free DMEM and dispensed in assay plates using a Multidrop Combi dispenser (Thermo Fisher Scientific). Wells containing medium only were plated on each plate, and values were used to normalize (100% inhibition) in the luciferase and CellTiter-Fluor assays. 2. Assay plates were incubated. Evaporation was prevented by covering assay plates with metal lids containing holes to allow gas diffusion. 3. Compounds were added in a dose response manner with the final concentrations of 57, 11.4, 2.28, 0.46, 0.091, 0.018, 0.0037 uM. Vehicle-only plates, with DMSO being pin-transferred to columns 5-48, were inserted uniformly at the beginning and the end of each library to monitor and record any shifts in assay performance. 5. 125 uM Gly-Phe-7-Amino-4-trifluoromethylcoumarin (MP Biomedicals) working concentration was used at a final concentration of 25 uM. 7. To assess cell viability; the assay plates were read using the ViewLux high-throughput CCD imager (PerkinElmer), wherein single end-point fluorescence measurement was acquired (excitation 405/10; emission 540/25 nm). 8. Detection reagent SteadyGlo Luciferase (Promega) was added to the assay plate. 10. Luminescence is then measured on the ViewLux imager equipped with a clear emission filter using a 2 sec exposure. […]
With `COc1ccc2c(c1)C(c1ccc(N(CCCl)CCCl)cc1)=NCC2` the Potency was inconclusive: 31.6 µM [cytotoxic, partial curve].
For `COc1ccc(CC2NCC(O)C2OC(C)=O)cc1` (stereo not given), the Potency was inconclusive: 0.251 µM [cytotoxic, full curve].
With `COc1ccc(CCNCc2ccc(F)cc2)cc1OC` the activity change, negative = cytotoxicity was inactive: -5.15% [at 11.5 µM].
For `COc1ccc(CCNC(=O)c2c(N)n(CCN3CCOCC3)c3nc4ccccc4nc23)cc1`, the Potency was inconclusive: 44.7 µM [cytotoxic, single point].
In the case of `CC(=O)OC(C)(C)/C=C/C(=O)C(C)(O)C1[C@H](O)C[C@@]2(C)C3CC=C4C(CC[C@@H](O)C4(C)C)[C@]3(CO)C(=O)C[C@]12C` (stereo not given in full), the Potency is reported as inconclusive: 1.12 µM [cytotoxic, partial curve, poor fit].
With `N#Cc1c(Br)n(C2OC(CO)C(O)C2O)c2ncnc(N)c12` (stereo not given) the activity change, negative = cytotoxicity was inactive: -19.5% [at 11.5 µM].
For `CCCCN=C[C@]12CCC(O)CC1(O)CCC1[C@@H]2CC[C@]2(C)[C@H](C3C=CC(=O)O3)CCC12O` (stereo not given in full), the Potency was inconclusive: 1.58 µM [cytotoxic, full curve].
For `C[C@@H]1O[C@@H](O[C@@H]2C=C3CC[C@@H]4C(CC[C@]5(C)[C@@H](c6ccc(=O)oc6)CC[C@]45O)[C@@]3(C)CC2)[C@H](O)[C@H](O)[C@H]1O` (stereo not given in full), the activity change, negative = cytotoxicity was inconclusive: -55.7%.
With `CC(C)c1oc(=O)cc2c1[C@@H](O)[C@H]1OC(=O)[C@@]3(C)CC[C@@H](O)[C@@]2(C)C13` (stereo not given in full) the Potency was inconclusive: 3.55 µM [cytotoxic, partial curve].
With `CCCCCn1c(=O)c(C(=O)NCc2ccccn2)c(O)c2ccccc21` the activity change, negative = cytotoxicity was inactive: -17.6% [at 11.5 µM].
In the case of `CCC(C)OC(=O)c1c(N)n(Cc2cccs2)c2nc3ccccc3nc12` (stereo not given), the Potency is reported as inconclusive: 28.2 µM [cytotoxic, partial curve, poor fit].
In the case of `CCOC(=O)c1c(N)n(CCN2CCCCC2)c2nc3ccccc3nc12`, the Potency is reported as “inactive”.
With `CCC(c1nnnn1-c1ccc2c(c1)OCCO2)N1CCC(n2c(=O)[nH]c3ccccc32)CC1` (stereo not given) the Potency was inconclusive: 2.82 µM [cytotoxic, partial curve, poor fit].
In the case of `C[C@]12CCC3C(CCC4=CC(O)CC[C@@]43/C=N/O)C1(O)CCC2C1=CC(=O)OC1` (stereo not given in full), the Potency is reported as inconclusive: 2 µM [cytotoxic, full curve].
With `C[C@]12CC[C@H](O)C[C@H]1CC[C@@H]1[C@@H]2CC[C@]2(C)[C@@H](C3=CC(=O)OC3)CC[C@]12O` the Potency was inconclusive: 0.398 µM [cytotoxic, full curve].
